Source: PubChem BioAssay AID1671190 (National Center for Advancing Translational Sciences (NCATS), 2021)
Out of some 580,000 compounds screened, about 6,100 (1.1%) were called active. This list was built around the results that the source calls inconclusive (neither active nor inactive); the mix of calls is not that of the screen. Calls come from the whole dose curve; as a rule, active = well fitted inhibition curve with a large enough effect; inconclusive = small, poorly fitted or top-dose-only effect, or another doubt; inactive = no such curve, though single readings can be large or run the other way. Potencies of inconclusive entries are doubtful fits and often do not repeat.

Chains of the proteins cited; added tags and fusions are not shown. Lines headed by an entry give the natural chain unless they say otherwise; changes in a name come on top.
UniProt P18054: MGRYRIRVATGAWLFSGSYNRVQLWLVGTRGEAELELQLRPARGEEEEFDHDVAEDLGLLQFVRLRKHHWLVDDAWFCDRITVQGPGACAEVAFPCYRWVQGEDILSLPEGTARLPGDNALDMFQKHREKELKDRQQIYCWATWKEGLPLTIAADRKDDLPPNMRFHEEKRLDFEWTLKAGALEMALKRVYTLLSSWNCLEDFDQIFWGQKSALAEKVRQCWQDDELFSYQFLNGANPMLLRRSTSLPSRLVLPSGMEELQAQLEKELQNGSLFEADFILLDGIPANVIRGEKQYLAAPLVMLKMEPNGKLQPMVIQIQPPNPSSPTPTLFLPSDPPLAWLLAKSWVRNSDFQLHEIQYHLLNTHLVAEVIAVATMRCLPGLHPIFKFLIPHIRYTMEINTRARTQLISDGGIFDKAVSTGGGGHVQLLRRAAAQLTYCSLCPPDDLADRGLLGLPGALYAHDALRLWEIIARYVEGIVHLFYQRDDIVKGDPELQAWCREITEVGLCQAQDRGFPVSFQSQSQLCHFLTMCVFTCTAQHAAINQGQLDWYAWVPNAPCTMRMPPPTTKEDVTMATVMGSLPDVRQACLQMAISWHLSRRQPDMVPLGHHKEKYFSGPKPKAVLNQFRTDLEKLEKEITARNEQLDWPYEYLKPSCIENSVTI

These molecules were tested against Polyunsaturated fatty acid lipoxygenase ALOX12 (Homo sapiens) (UniProt P18054) (assay: Primary qHTS assay for inhibitors of human arachidonate 12S-lipoxygenase (ALOX12): Round 2). Conditions: purified 12hLO, xylenol orange hydroperoxide absorbance; activity change, negative = inhibition: at 108 µM (top of the series) unless noted.
Outline: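 Purified human 12hLO at 150 nM in 25 mM Hepes, 0.01% Triton X-100, pH 7.0, preincubated 15 min at room temperature with compound. Reaction started with 40 uM arachidonic acid, 30 min at room temperature. Hydroperoxide measured by Fe-xylenol orange, 573/405 nm absorbance ratio.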
% is set by controls: 0 for no effect and ±100 for the full control effect; potency is the fitted concentration of half-maximal effect.

Row | SMILES | activity change, negative = inhibition | Potency
1 | COc1ccc(-c2ccc(C(=O)NCC3CCOCC3)c3occc23)c(C)c1 | inactive: -22.6% | –
2 | CC(=O)C1=C(C)N(Cc2ccc(Br)cc2)C(=S)NC1c1cccc(Cl)c1 (stereo unspecified) | – | inconclusive: 50.1 µM [inhibitor, partial curve, poor fit]
3 | Cc1oc2ncnc(N3CCOCC3)c2c1C(=O)NCC1CCN(CCc2ccc(F)cc2)CC1 | – | inconclusive: 100 µM [inhibitor, single point]
4 | Cc1ccc(/C=C/C(=O)O)c(C)c1 | inactive: 12.3% | –
5 | C=CCn1c(CNC(=O)c2cccs2)nnc1SCC(=O)Nc1ccc(C(=O)O)cc1 | – | inconclusive: 28.2 µM [inhibitor, partial curve, poor fit]
6 | COc1ccc(C(=O)n2cc(C(=O)c3cc(C)ccc3O)cn2)cc1 | inactive: -19% | –
7 | C/C(CCCO)=N/Nc1ccc([N+](=O)[O-])cc1[N+](=O)[O-] | – | inconclusive: 112 µM [inhibitor, partial curve, poor fit]
8 | S=c1[nH]nc(CSCCOc2ccc(Cl)cc2Cl)o1 | – | inconclusive: 35.5 µM [inhibitor, partial curve, poor fit]
9 | O=C(CSc1nnc(Cc2cccs2)n1C1CCCCC1)N1CCN(c2ccccn2)CC1 | – | inconclusive: 79.4 µM [inhibitor, single point]
10 | O=C(CSc1nc2c(c(=O)[nH]1)CCC2)Nc1ccccc1F | – | inconclusive: 56.2 µM [inhibitor, partial curve, poor fit]
11 | O=c1c2c(n(Cc3ccccc3)n1-c1ccccc1)CN(Cc1ccc3[nH]ccc3c1)CC2 | – | inconclusive: 56.2 µM [inhibitor, full curve, poor fit]
12 | CCCC(=O)C1=C(N2CCCCC2)CC(C)(C)C(C(=O)OC)C1=O (stereo unspecified) | – | inconclusive: 28.2 µM [inhibitor, partial curve, poor fit]
13 | C[C@H](O)[C@@H]1C(=O)N2CCc3ccc(N4CCN(C)CC4)cc3[C@@H]2C[C@@H]1N(C)C(=O)c1ccco1 | – | inconclusive: 31.6 µM [inhibitor, single point]
14 | O=C1CCCCC1OC(=O)C12CC3CC(CC(Cl)(C3)C1)C2 (stereo unspecified) | inactive: -17.1% | –
15 | O=C(O)C1CSC(CCc2ccccc2)N1 (stereo unspecified) | – | inconclusive: 1.26 µM [inhibitor, full curve, poor fit]
16 | Cc1ccccc1-c1nc(CNC(=O)Nc2ccccc2)c(C)o1 | – | inconclusive: 126 µM [inhibitor, partial curve, poor fit]
17 | Cc1cccc(C(=O)NCCC2CCN(C(=O)Nc3cc(F)ccc3F)CC2)c1 | inactive: 46.8% | –
18 | Cc1cc(C(F)(F)F)n2nc(C(=O)O)c(Cl)c2n1 | – | active: 44.7 µM
19 | CN(C)/C=C/C(=O)c1ccc(Br)s1 | – | active: 39.8 µM
20 | CCc1cnc(Nc2nc(C(N)c3ccccc3Cl)cs2)nc1 (stereo unspecified) | inactive: 5.32% | –
21 | N#CCCn1cc(C(=O)Nc2ccc(F)cc2)c(-c2cccs2)n1 | inactive: -10.7% | –
22 | COc1cc(/C=C/c2cc(C(F)(F)F)[nH]c(=O)n2)cc(OC)c1OC | – | inconclusive: 50.1 µM [inhibitor, partial curve, poor fit]

Row | SMILES | activity change, negative = inhibition | Potency
23 | Fc1ccc(-c2nc(COc3c(Cl)cccc3Cl)co2)cc1 | inactive: -28.2% | –
24 | COc1cc(C2CC(=O)Nc3c(-c4ccccc4)nsc32)cc2c1OCO2 (stereo unspecified) | inactive: 61.3% | –
25 | COc1cc(C2NC(=S)NC(C)=C2C(=O)Nc2ccc(C)cc2)ccc1O (stereo unspecified) | – | inconclusive: 3.16 µM [inhibitor, full curve]
26 | COc1cccc(NC(=O)C2(C)CCN2C(=O)C2CCCCC2)c1 (stereo unspecified) | – | inconclusive: 44.7 µM [inhibitor, single point]
27 | Cn1cnnc1C1CCN(C(=O)C2CCCN(C(N)=O)C2)CC1 (stereo unspecified) | – | inconclusive: 20 µM [inhibitor, full curve]
28 | CC(C)=CCn1c2ccc(NC(=S)NC3CC3)cc2c(=O)n1C | – | inconclusive: 31.6 µM [inhibitor, full curve, poor fit]
29 | CC(C)COP(=O)(OCC(C)C)C(Nc1ccccc1)c1ccc(F)cc1 (stereo unspecified) | inactive: -16.9% | –
30 | CN(C)C(=O)c1ccc(NC(=O)c2cc(Br)c(Br)s2)cc1 | – | inconclusive: 89.1 µM [inhibitor, partial curve, poor fit]
31 | Cc1c(Cl)cccc1-n1ncc(C(=O)Nc2ccc3c(c2)OCCO3)c1C1CCN(C(=O)OC(C)(C)C)CC1 | inactive: -17.4% | –
32 | Cc1ccccc1C(C)NC(=O)CSc1nc2cc([N+](=O)[O-])ccc2o1 (stereo unspecified) | – | active: 25.1 µM
33 | Cc1noc(/C=C/N(C)C)c1S(=O)(=O)N1CCC(C(=O)Nc2ccc(Cl)cc2)CC1 | – | inconclusive: 50.1 µM [inhibitor, partial curve, poor fit]
34 | Cc1cc(=O)oc2cc(Oc3ccc(S(=O)(=O)NC(C)C)cc3[N+](=O)[O-])ccc12 | – | inconclusive: 35.5 µM [inhibitor, single point]
35 | Cc1ccc(C(=O)NCCc2nnc3ccc(SCC(=O)NCc4ccc(F)cc4)nn23)cc1 | inactive: -8.68% | –
36 | COC(=O)Cc1ccc(NC(=S)NCc2ccccc2)cc1 | – | inconclusive: 44.7 µM [inhibitor, partial curve]
37 | c1ccc(NCCn2cc(C3CCCNC3)nn2)cc1 (stereo unspecified) | – | inconclusive: 25.1 µM [inhibitor, single point]
38 | Cc1ccc(Nc2nc(N)nc(N)c2N=O)cc1Cl | – | inconclusive: 112 µM [inhibitor, single point]
39 | O=C(CCCc1nc2ccccc2s1)NC1CCCC1 | – | inconclusive: 35.5 µM [inhibitor, partial curve, poor fit]
40 | O=C(O)CO[C@@H]1COCC[C@H]1NC(=O)c1cccc2c1OCCO2 | inactive: 27.5% | –
41 | O=C(CCNC(=O)Cn1ccc2ccccc2c1=O)NCCN1CCN(c2cccc(Cl)c2)CC1 | inactive: -0.979% | –
42 | CO[C@H]1/C=C\O[C@@]2(C)Oc3c(C)c(O)c4c(O)c(c(C=NN5CCN(C6CCCC6)CC5)c(O)c4c3C2=O)NC(=O)C(C)=CC=C[C@H](C)[C@H](O)[C@@H](C)[C@@H](O)[C@@H](C)[C@H](OC(C)=O)[C@H]1C | – | inconclusive: 21.7 µM [inhibitor, partial curve, poor fit]
43 | Cc1cccc(NC(=S)Nc2cccc(C(F)(F)F)c2)n1 | – | inconclusive: 6.31 µM [inhibitor, full curve, poor fit]
44 | O=C(Nc1cc(Oc2ccc(Cl)cc2)cc([N+](=O)[O-])c1)c1ccco1 | inactive: -24.4% | –

Row | SMILES | activity change, negative = inhibition | Potency
45 | CCOC(=O)C1CCN(C(=O)c2cc3c(=O)n4ccccc4nc3s2)CC1 | – | inconclusive: 56.2 µM [inhibitor, partial curve, poor fit]
46 | CC1C(=O)OC(c2ccc(Cl)cc2)C(C)(C)C1=O (stereo unspecified) | – | inconclusive: 20 µM [inhibitor, partial curve, poor fit]
47 | O=S(=O)(CCCCC(Cl)(Cl)Cl)NCc1ccco1 | inactive: 19.9% | –
48 | CC1(C)N=C(c2ccc(Br)cc2)C(=S)N1 | – | inconclusive: 44.7 µM [inhibitor, partial curve, poor fit]
49 | COc1cccc(C=Nc2ccccc2C(=O)Nc2nccs2)c1OC | – | inconclusive: 126 µM [inhibitor, single point]
50 | O=S(=O)(NCCc1cn2ccccc2n1)c1ccc(-c2ccccc2)cc1 | inactive: 10.5% | –
51 | O=C1COCCN1C1CCN(S(=O)(=O)c2cccc(C(F)(F)F)c2)CC1 | inactive: 0.331% [at 6.33 µM] | –
52 | CCCNC(=O)C(C)NC(=O)Cc1ccc(S(=O)(=O)N2CCCCC2)cc1 (stereo unspecified) | – | active: 20 µM
53 | NS(=O)(=O)c1ccc(N/N=C/c2cccc([N+](=O)[O-])c2)cc1 | – | inconclusive: 89.1 µM [inhibitor, single point]
54 | CCN(CC)CCN(C(=O)c1ccco1)c1nc2ccc(Cl)cc2s1 | – | inconclusive: 50.1 µM [inhibitor, partial curve, poor fit]
55 | Cc1ccc(COC(=O)c2cccc(S(=O)(=O)N3CCCCCC3)c2)cc1 | inactive: 153% | –
56 | C#CCOCCOCCOCCNc1nc(N2CCOCC2)nc(N2CCN(C(=O)[C@H](C)n3cc(CCCN=C(N)N)nn3)CC2)n1 | – | inconclusive: 22.4 µM [inhibitor, partial curve, poor fit]
57 | NC1(C#Cc2ccc3oc(=O)c(-n4cc(C5(O)CCCCC5)nn4)cc3c2)CCCCC1 | – | inconclusive: 35.5 µM [inhibitor, partial curve, poor fit]
58 | COc1ccc(CNc2ncc(-c3ccc(Cl)cc3)n2C)c(OC)c1OC | – | inconclusive: 0.891 µM [inhibitor, full curve, poor fit]
59 | CN1CCN(c2nc(-c3ccccc3O)nc3ccccc23)CC1 | – | inconclusive: 44.7 µM [inhibitor, partial curve, poor fit]
60 | CC(C)CNC(=O)CSc1nnc(-c2nn(Cc3ccccc3)c(=O)c3ccccc23)o1 | – | inconclusive: 79.4 µM [inhibitor, single point]
61 | COc1ccc(C(=S)Nc2ccc(C)cc2)cc1 | – | inconclusive: 44.7 µM [inhibitor, partial curve, poor fit]
62 | COCCn1nnnc1CN1CCOCC1 | – | inconclusive: 7.94 µM [inhibitor, full curve, poor fit]
63 | Brc1ccc(OCCCN2CCOCC2)cc1 | – | inconclusive: 50.1 µM [inhibitor, partial curve, poor fit]
64 | Cc1ccc(S(=O)(=O)N2CCCC2C(=O)n2nc(C)c(Sc3ccccc3)c2C)cc1 (stereo unspecified) | – | inconclusive: 50.1 µM [inhibitor, partial curve, poor fit]
65 | COc1ccc(CC(=O)N(C)CC(=O)Nc2cccc(F)c2)cc1S(=O)(=O)N1CCOCC1 | – | inconclusive: 17.8 µM [inhibitor, partial curve, poor fit]
66 | CC(C)CCOc1ccc(C(=O)Nc2cccc3cccnc23)cc1 | inactive: 25.7% | –
